# Assay results reported in PMC8795797.
# By UniProt entry, the sequences of proteins in these tests, tags left out.
# UniProt Q99558: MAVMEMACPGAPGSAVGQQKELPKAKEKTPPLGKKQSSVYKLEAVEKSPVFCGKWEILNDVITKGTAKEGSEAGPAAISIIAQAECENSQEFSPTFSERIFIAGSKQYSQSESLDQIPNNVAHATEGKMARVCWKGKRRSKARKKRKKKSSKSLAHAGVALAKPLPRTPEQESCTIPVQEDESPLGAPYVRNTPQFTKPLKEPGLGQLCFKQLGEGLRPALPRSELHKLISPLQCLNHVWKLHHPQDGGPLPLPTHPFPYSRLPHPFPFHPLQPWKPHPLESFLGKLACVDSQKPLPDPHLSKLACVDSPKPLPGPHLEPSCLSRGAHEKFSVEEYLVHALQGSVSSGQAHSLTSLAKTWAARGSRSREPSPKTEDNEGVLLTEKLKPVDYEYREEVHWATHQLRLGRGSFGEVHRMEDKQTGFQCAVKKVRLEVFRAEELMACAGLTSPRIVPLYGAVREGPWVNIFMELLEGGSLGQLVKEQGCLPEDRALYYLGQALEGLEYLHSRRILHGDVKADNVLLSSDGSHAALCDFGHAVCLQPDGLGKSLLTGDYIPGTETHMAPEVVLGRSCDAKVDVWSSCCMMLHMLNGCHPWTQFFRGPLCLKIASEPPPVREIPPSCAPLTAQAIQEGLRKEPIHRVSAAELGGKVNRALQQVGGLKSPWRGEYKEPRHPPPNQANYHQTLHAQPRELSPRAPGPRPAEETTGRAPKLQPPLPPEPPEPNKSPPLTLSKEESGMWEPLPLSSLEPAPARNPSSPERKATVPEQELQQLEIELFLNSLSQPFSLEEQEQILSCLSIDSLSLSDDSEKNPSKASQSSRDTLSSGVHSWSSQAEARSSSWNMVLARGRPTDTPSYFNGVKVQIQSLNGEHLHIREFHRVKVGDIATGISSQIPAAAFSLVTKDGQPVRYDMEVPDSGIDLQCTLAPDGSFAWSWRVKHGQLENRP
# Results are given in words; binding and its absence hold for the method and conditions named. In cells and extracts the contact can be indirect. Some entries that bind do so weakly or less than the wild type.
# T1: ZFP91 zinc finger protein (human (endogenous in NB4)) (UniProt Q96JP5)
# T1 sequence: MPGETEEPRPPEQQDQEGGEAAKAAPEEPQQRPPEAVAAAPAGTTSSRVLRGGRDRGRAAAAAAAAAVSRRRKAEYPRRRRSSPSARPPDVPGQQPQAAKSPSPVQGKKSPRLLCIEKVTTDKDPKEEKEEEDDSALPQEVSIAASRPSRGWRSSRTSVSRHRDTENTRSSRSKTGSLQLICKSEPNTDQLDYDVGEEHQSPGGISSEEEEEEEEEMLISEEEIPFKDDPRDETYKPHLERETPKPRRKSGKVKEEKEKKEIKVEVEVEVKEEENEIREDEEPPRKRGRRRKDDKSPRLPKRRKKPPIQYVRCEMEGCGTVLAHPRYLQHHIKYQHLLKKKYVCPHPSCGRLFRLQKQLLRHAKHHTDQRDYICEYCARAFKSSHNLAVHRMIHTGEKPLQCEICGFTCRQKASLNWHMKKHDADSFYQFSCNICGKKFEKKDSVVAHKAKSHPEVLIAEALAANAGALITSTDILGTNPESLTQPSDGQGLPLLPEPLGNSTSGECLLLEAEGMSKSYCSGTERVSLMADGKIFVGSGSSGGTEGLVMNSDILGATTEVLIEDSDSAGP
# T2: receptor-interacting serine/threonine-protein kinase 1 (human (endogenous in NB4)), Q13546
# T2 chain: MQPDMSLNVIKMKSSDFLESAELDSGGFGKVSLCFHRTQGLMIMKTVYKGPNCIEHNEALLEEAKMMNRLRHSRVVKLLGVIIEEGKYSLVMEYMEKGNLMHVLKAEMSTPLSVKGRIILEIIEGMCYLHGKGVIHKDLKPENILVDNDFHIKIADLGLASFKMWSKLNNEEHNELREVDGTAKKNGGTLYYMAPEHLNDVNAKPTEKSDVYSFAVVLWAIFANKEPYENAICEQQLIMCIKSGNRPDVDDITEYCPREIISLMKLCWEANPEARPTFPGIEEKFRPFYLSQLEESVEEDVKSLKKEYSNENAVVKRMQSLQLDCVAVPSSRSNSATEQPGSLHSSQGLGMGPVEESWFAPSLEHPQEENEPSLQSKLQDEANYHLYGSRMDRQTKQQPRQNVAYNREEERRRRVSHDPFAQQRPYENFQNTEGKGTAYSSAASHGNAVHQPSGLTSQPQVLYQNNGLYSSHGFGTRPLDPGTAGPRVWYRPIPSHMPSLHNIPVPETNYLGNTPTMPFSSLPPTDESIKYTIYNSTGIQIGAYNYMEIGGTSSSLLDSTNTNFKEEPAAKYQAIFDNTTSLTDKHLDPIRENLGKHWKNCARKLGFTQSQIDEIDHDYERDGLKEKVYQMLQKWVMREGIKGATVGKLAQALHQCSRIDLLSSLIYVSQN
# B1: TRAF2, Q12933 1-501 (protein)
# chain: MAAASVTPPGSLELLQPGFSKTLLGTKLEAKYLCSACRNVLRRPFQAQCGHRYCSFCLASILSSGPQNCAACVHEGIYEEGISILESSSAFPDNAARREVESLPAVCPSDGCTWKGTLKEYESCHEGRCPLMLTECPACKGLVRLGEKERHLEHECPERSLSCRHCRAPCCGADVKAHHEVCPKFPLTCDGCGKKKIPREKFQDHVKTCGKCRVPCRFHAIGCLETVEGEKQQEHEVQWLREHLAMLLSSVLEAKPLLGDQSHAGSELLQRCESLEKKTATFENIVCVLNREVERVAMTAEACSRQHRLDQDKIEALSSKVQQLERSIGLKDLAMADLEQKVLEMEASTYDGVFIWKISDFARKRQEAVAGRIPAIFSPAFYTSRYGYKMCLRIYLNGDGTGRGTHLSLFFVVMKGPNDALLRWPFNQKVTLMLLDQNNREHVIDAFRPDVTSSSFQRPVNDMNIASGCPLFCPVSKMEAKNSYVRDDAIFIKAIVDLTGL
# B2: ZFP91 zinc finger protein (protein, UniProt Q96JP5 1-570)
# chain: MPGETEEPRPPEQQDQEGGEAAKAAPEEPQQRPPEAVAAAPAGTTSSRVLRGGRDRGRAAAAAAAAAVSRRRKAEYPRRRRSSPSARPPDVPGQQPQAAKSPSPVQGKKSPRLLCIEKVTTDKDPKEEKEEEDDSALPQEVSIAASRPSRGWRSSRTSVSRHRDTENTRSSRSKTGSLQLICKSEPNTDQLDYDVGEEHQSPGGISSEEEEEEEEEMLISEEEIPFKDDPRDETYKPHLERETPKPRRKSGKVKEEKEKKEIKVEVEVEVKEEENEIREDEEPPRKRGRRRKDDKSPRLPKRRKKPPIQYVRCEMEGCGTVLAHPRYLQHHIKYQHLLKKKYVCPHPSCGRLFRLQKQLLRHAKHHTDQRDYICEYCARAFKSSHNLAVHRMIHTGEKPLQCEICGFTCRQKASLNWHMKKHDADSFYQFSCNICGKKFEKKDSVVAHKAKSHPEVLIAEALAANAGALITSTDILGTNPESLTQPSDGQGLPLLPEPLGNSTSGECLLLEAEGMSKSYCSGTERVSLMADGKIFVGSGSSGGTEGLVMNSDILGATTEVLIEDSDSAGP
# Experiments:
# Test in all cases: co-IP; endogenous proteins in NB4 cell extract; antibody pre-conjugated to Protein A/G magnetic beads, incubated with protein overnight at 4 °C; western blot of the precipitate; IgG control
# [1] = target: T1, ZFP91 zinc finger protein (human (endogenous in NB4))
# [2] = target: NIK (human (endogenous in NB4)) (UniProt Q99558)
# [3] = target: T2, receptor-interacting …; conditions: remark: other sources report otherwise
# [4] = target: receptor-interacting serine/threonine-protein kinase 1 (human (endogenous in NB4)) (UniProt Q13546)
molecule,measurement,setting,value
receptor-interacting serine/threonine-protein kinase 1 (from UniProt Q13546 1-671),binding,[1],binds
same,binding,[2],binds
B1,binding,[3],binds
B2,binding,[4],binds
